Literature values in US20020064553A1, “LARGE LIPOSOME COMPOSITION NOT INCREASING LDL LEVELS AND METHOD OF TREATING ATHEROSCLEROSIS RELATED THERETO” (priority 1995, published 2002).
At least one compound was matched to its structure with a doubt left.

Conditions: cardiac transplant recipients; control group 22%

Compound: CC[C@H](C)C(=O)O[C@H]1C[C@H](O)C=C2C=C[C@H](C)[C@H](CC[C@@H](O)C[C@@H](O)CC(=O)O)[C@H]21 [pravastatin]
- deaths in the first year: 6%
